# In the supplement of paper PMC8728848:
# The other results are listed elsewhere or left out.
# B1: PX14343E-bfa-545-24-545 (Bacteroides fragilis) (protein)
# chain: LDRYPQEELSDGSFWKTPDDANKVVSDLYGYLSTWDQDNDINSDNATMGIKWAAGNVSKGIYDPADQGWSGDYANVRQCNLILSKIDEIPDYPEADKTKALGQVYFFRAYIYFNLIRSFGDVPYIDKPLDLKDMEGITRMPRAEVYEKIMADFDKAIAALPTEWGASDYGRVTKGAAMAMKARAALYYGNWDTAATEAKNVMDLGLYELYDKDNTGKYAELFWEKADGCDEFILVTQFNYPDKTHYLMGWECFPTKGWGGMNPTQSLVDAFEDSEGAPISKSKIYDPTDPFKNRDPRLEVDILHDGEEMYGVTIKVAPLASSGSTGINQHNDATETGYYGQKWLDPSLDPLSDGWNMGKDWVHIRYAEVLLTYAEAKNELQGLDPEAFDAVNQVRRRVGMPELQNTDPSKPTYCATQDDLRQRIRNEWRVEFCLEGGKRMWDIRRWGIAKDVLNAPFEGLKYKIVDNPNDPDKKVDGGKMCILYQGDPIILSGSRYSDNNYLFPVPQSEIDLNPALTQNPGY
# Tests used:
# Assay in all cases: glycan array binding signal (z-score within array); higher = stronger binding
# Conditions in all cases: glycan notation: IUPAC condensed, linker removed
# Gal3S(b1-4)Glc = molecular target: Gal3S(b1-4)Glc
# Outline: (§1)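 Glycan array data were curated from 3228 arrays in the Consortium for Functional Glycomics database and kept only where the protein sequence was available. Glycan names were converted to IUPAC-condensed notation, and columns mapping to the same glycan were averaged. The binding signal is a within-array Z-score, averaged across arrays of the same protein sequence at different concentrations or buffers and across linkers. Negative Z-scores can be read as non-binding.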
# Gal3S(b1-4)Glc6S = molecular target: Gal3S(b1-4)Glc6S
# Outline: as §1
# Gal3S(b1-4)GlcNAc = molecular target: Gal3S(b1-4)GlcNAc
# Outline: as §1
# [1] = molecular target: Gal3S(b1-4)[Fuc(a1-3)]Glc6S
# Outline: as §1
# [2] = molecular target: Gal3S(b1-4)[Fuc(a1-3)]GlcNAc
# Outline: as §1
# [3] = molecular target: Gal3S(b1-4)[Fuc(a1-3)]GlcNAc6S
# Outline: as §1
# Gal3S4S(b1-4)GlcNAc = molecular target: Gal3S4S(b1-4)GlcNAc
# Outline: as §1
# Gal3S6S(b1-4)GlcNAc = molecular target: Gal3S6S(b1-4)GlcNAc
# Outline: as §1
# Gal3S6S(b1-4)GlcNAc6S = molecular target: Gal3S6S(b1-4)GlcNAc6S
# Outline: as §1
# Gal4S(b1-4)GlcNAc = molecular target: Gal4S(b1-4)GlcNAc
# Outline: as §1
# Gal4S6S(b1-4)GlcNAc = molecular target: Gal4S6S(b1-4)GlcNAc
# Outline: as §1
# Gal6P(b1-4)GlcNAc = molecular target: Gal6P(b1-4)GlcNAc
# Outline: as §1
# Gal6S(b1-3)GlcNAc = molecular target: Gal6S(b1-3)GlcNAc
# Outline: as §1
# Gal6S(b1-3)GlcNAc6S = molecular target: Gal6S(b1-3)GlcNAc6S
# Outline: as §1
# Gal6S(b1-4)Glc = molecular target: Gal6S(b1-4)Glc
# Outline: as §1
# Gal6S(b1-4)Glc6S = molecular target: Gal6S(b1-4)Glc6S
# Outline: as §1
# Gal6S(b1-4)GlcNAc = molecular target: Gal6S(b1-4)GlcNAc
# Outline: as §1
# Gal6S(b1-4)GlcNAc6S = molecular target: Gal6S(b1-4)GlcNAc6S
# Outline: as §1
# GalNAc(a1-3)Gal = molecular target: GalNAc(a1-3)Gal
# Outline: as §1
# GalNAc(a1-3)GalNAc = molecular target: GalNAc(a1-3)GalNAc
# Outline: as §1
# [4] = molecular target: GalNAc(a1-3)GalNAc(b1-3)Gal(a1-4)Gal(b1-4)Glc
# Outline: as §1
# [5] = molecular target: GalNAc(a1-3)GalNAc(b1-3)Gal(a1-4)Gal(b1-4)GlcNAc
# Outline: as §1
# GalNAc(b1-3)Gal = molecular target: GalNAc(b1-3)Gal
# Outline: as §1
# [6] = molecular target: GalNAc(b1-3)Gal(a1-4)Gal(b1-4)GlcNAc
# Outline: as §1
# [7] = molecular target: GalNAc(b1-3)Gal(a1-4)Gal(b1-4)GlcNAc(b1-3)Gal(b1-4)Glc
# Outline: as §1
# [8] = molecular target: GalNAc(b1-3)Gal(a1-6)Gal(b1-4)Glc
# Outline: as §1
# GalNAc(b1-3)GalNAc = molecular target: GalNAc(b1-3)GalNAc
# Outline: as §1
# GalNAc(b1-3)GlcNAc = molecular target: GalNAc(b1-3)GlcNAc
# Outline: as §1
# GalNAc(b1-4)Gal(b1-4)Glc = molecular target: GalNAc(b1-4)Gal(b1-4)Glc
# Outline: as §1
# GalNAc(b1-4)GlcNAc = molecular target: GalNAc(b1-4)GlcNAc
# Outline: as §1
# [9] = molecular target: GalNAc(b1-4)GlcNAc(b1-2)Man
# Outline: as §1
# [10] = molecular target: GalNAc(b1-4)GlcNAc(b1-2)Man(a1-3)[GalNAc(b1-4)GlcNAc(b1-2)Man(a1-6)]Man(b1-4)GlcNAc(b1-4)GlcNAc
# Outline: as §1
# [11] = molecular target: GalNAc(b1-4)GlcNAc(b1-3)GalNAc(b1-4)GlcNAc
# Outline: as §1
# GalNAc(b1-4)GlcNAc6S = molecular target: GalNAc(b1-4)GlcNAc6S
# Outline: as §1
# GalNAc(b1-6)GalNAc = molecular target: GalNAc(b1-6)GalNAc
# Outline: as §1
# GalNAc3S(b1-4)GlcNAc = molecular target: GalNAc3S(b1-4)GlcNAc
# Outline: as §1
# GalNAc3S(b1-4)GlcNAc3S = molecular target: GalNAc3S(b1-4)GlcNAc3S
# Outline: as §1
binder,measurement,setting,value
B1,glycan array binding signal (z-score),Gal3S(b1-4)Glc,1.41
same,glycan array binding signal (z-score),Gal3S(b1-4)Glc6S,0.818
same,glycan array binding signal (z-score),Gal3S(b1-4)GlcNAc,-0.61
same,glycan array binding signal (z-score),[1],-0.378
same,glycan array binding signal (z-score),[2],-0.064
same,glycan array binding signal (z-score),[3],0.523
same,glycan array binding signal (z-score),Gal3S4S(b1-4)GlcNAc,0.63
same,glycan array binding signal (z-score),Gal3S6S(b1-4)GlcNAc,1.24
same,glycan array binding signal (z-score),Gal3S6S(b1-4)GlcNAc6S,-0.92
same,glycan array binding signal (z-score),Gal4S(b1-4)GlcNAc,0.127
same,glycan array binding signal (z-score),Gal4S6S(b1-4)GlcNAc,0.122
same,glycan array binding signal (z-score),Gal6P(b1-4)GlcNAc,1.49
same,glycan array binding signal (z-score),Gal6S(b1-3)GlcNAc,0.427
same,glycan array binding signal (z-score),Gal6S(b1-3)GlcNAc6S,1.13
same,glycan array binding signal (z-score),Gal6S(b1-4)Glc,-0.737
same,glycan array binding signal (z-score),Gal6S(b1-4)Glc6S,1.69
same,glycan array binding signal (z-score),Gal6S(b1-4)GlcNAc,-1.1
same,glycan array binding signal (z-score),Gal6S(b1-4)GlcNAc6S,-0.429
same,glycan array binding signal (z-score),GalNAc(a1-3)Gal,-0.081
same,glycan array binding signal (z-score),GalNAc(a1-3)GalNAc,-0.557
same,glycan array binding signal (z-score),[4],-0.418
same,glycan array binding signal (z-score),[5],0.216
same,glycan array binding signal (z-score),GalNAc(b1-3)Gal,0.841
same,glycan array binding signal (z-score),[6],-0.568
same,glycan array binding signal (z-score),[7],0.963
same,glycan array binding signal (z-score),[8],-0.333
same,glycan array binding signal (z-score),GalNAc(b1-3)GalNAc,-0.529
same,glycan array binding signal (z-score),GalNAc(b1-3)GlcNAc,0.169
same,glycan array binding signal (z-score),GalNAc(b1-4)Gal(b1-4)Glc,0.768
same,glycan array binding signal (z-score),GalNAc(b1-4)GlcNAc,-0.798
same,glycan array binding signal (z-score),[9],-0.317
same,glycan array binding signal (z-score),[10],1.25
same,glycan array binding signal (z-score),[11],-0.624
same,glycan array binding signal (z-score),GalNAc(b1-4)GlcNAc6S,-0.392
same,glycan array binding signal (z-score),GalNAc(b1-6)GalNAc,-0.165
same,glycan array binding signal (z-score),GalNAc3S(b1-4)GlcNAc,-0.165
same,glycan array binding signal (z-score),GalNAc3S(b1-4)GlcNAc3S,-1.05

# Nine successive records out of the list so far, for reference:
binder,measurement,setting,value
B1,glycan array binding signal (z-score),[8],-0.333
same,glycan array binding signal (z-score),GalNAc(b1-3)GalNAc,-0.529
same,glycan array binding signal (z-score),GalNAc(b1-3)GlcNAc,0.169
same,glycan array binding signal (z-score),GalNAc(b1-4)Gal(b1-4)Glc,0.768
same,glycan array binding signal (z-score),GalNAc(b1-4)GlcNAc,-0.798
same,glycan array binding signal (z-score),[9],-0.317
same,glycan array binding signal (z-score),[10],1.25
same,glycan array binding signal (z-score),[11],-0.624
same,glycan array binding signal (z-score),GalNAc(b1-4)GlcNAc6S,-0.392
